The other results are listed elsewhere or left out.
Assays:
Assay in all cases: log2 fold change, soluble protein after heating vs DMSO (PISA); higher = thermal stabilisation; K562 lysate, 10 uM; active = over 0.2 and 3.5 SD of the protein, either way, in both replicates (recomputed)
[1] = compound: CCCS(=O)(=O)Nc1ccc(F)c(C(=O)c2c[nH]c3ncc(-c4ccc(Cl)cc4)cc23)c1F [vemurafenib]
Method in brief: (§1)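 Pellets of K562 cells were dounce-homogenised in PBS pH 7.4 with 1 mM MgCl2, and the crude extract was held at 1 mg/mL protein for a 30 min treatment with 10 μM compound. Aliquots were heated for 3 min over 48°C-58°C and pooled before NP-40 was added to 0.5% at 4°C. The supernatant from 21,000xg for 90 min was quantified by TMTpro 16plex LC-MS/MS with channel sums equalised. Values are reported from duplicates as log-two fold change in thermal stability relative to solvent controls.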

The chains behind the UniProt entries cited, without tags or fusion partners. Where a name states a change or a piece, a line headed by the entry shows the natural chain unless it says otherwise.
UniProt P53618: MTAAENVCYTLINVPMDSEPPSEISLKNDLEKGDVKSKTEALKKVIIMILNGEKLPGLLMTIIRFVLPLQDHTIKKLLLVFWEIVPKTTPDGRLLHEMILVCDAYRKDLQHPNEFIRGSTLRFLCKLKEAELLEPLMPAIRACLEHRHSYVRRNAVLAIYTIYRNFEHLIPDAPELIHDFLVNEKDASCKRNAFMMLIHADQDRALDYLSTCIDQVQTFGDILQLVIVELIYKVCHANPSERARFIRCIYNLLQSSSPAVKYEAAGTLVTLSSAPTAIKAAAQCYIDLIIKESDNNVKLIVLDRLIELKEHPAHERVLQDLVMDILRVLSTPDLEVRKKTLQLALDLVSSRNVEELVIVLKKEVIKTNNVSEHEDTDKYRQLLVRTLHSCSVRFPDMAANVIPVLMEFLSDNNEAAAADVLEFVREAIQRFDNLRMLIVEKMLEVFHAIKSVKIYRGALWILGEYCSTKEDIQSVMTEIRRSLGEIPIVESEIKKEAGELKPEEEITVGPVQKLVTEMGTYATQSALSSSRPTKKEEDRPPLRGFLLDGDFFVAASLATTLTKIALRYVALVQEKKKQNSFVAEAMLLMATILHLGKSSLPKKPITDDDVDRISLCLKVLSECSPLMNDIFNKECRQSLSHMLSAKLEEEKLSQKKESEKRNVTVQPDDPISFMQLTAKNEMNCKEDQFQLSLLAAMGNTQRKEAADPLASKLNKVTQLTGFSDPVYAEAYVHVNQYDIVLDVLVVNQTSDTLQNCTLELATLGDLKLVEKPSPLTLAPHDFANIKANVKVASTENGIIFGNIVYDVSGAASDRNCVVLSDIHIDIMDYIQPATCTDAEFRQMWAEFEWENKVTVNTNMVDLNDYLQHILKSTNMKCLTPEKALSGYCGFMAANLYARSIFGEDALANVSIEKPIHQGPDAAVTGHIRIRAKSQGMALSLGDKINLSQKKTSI
UniProt Q9UBI1, whole entry, looked up: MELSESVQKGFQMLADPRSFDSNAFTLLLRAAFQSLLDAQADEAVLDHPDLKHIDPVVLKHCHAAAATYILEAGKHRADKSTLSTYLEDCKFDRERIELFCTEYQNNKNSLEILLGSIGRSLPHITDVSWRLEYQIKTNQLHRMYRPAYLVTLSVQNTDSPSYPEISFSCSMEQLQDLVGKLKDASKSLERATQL
UniProt O14579: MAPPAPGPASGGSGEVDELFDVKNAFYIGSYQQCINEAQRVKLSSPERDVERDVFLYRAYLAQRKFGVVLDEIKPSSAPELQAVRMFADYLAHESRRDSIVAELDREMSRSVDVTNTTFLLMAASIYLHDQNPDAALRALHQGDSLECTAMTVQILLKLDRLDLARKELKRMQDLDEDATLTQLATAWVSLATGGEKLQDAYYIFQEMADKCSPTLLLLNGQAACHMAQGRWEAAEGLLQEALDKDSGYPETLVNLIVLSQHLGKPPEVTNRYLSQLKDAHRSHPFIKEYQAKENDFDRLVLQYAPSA
UniProt Q9UBW8: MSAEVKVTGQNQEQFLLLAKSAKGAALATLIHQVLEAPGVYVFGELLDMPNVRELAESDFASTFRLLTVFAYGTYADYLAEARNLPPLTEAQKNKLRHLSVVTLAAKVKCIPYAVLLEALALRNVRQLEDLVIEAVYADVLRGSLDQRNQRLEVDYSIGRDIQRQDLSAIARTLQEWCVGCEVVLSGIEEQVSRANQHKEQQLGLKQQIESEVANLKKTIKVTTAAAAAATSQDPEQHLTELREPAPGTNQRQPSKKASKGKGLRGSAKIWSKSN
UniProt Q9UBF2: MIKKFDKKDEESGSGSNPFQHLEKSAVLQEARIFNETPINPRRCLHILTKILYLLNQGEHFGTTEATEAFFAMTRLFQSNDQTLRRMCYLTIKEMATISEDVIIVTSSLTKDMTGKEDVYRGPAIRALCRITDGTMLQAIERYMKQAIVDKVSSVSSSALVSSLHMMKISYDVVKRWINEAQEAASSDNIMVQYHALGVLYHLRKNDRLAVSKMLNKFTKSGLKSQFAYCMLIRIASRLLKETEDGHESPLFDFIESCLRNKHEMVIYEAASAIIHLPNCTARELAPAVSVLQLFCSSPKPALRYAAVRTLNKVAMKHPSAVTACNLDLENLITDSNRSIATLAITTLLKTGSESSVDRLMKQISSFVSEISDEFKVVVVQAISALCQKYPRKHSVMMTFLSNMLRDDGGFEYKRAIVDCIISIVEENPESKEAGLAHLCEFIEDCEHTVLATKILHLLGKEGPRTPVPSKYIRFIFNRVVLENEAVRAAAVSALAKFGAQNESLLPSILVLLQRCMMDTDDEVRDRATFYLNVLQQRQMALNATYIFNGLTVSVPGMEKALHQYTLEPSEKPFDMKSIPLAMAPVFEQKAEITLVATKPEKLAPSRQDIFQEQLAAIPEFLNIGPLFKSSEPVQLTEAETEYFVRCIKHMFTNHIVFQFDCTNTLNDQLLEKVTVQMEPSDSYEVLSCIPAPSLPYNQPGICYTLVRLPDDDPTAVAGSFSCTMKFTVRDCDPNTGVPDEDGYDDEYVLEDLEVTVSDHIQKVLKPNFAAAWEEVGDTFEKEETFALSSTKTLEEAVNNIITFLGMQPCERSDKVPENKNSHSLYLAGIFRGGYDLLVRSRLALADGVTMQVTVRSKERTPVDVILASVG
UniProt Q9UBL6: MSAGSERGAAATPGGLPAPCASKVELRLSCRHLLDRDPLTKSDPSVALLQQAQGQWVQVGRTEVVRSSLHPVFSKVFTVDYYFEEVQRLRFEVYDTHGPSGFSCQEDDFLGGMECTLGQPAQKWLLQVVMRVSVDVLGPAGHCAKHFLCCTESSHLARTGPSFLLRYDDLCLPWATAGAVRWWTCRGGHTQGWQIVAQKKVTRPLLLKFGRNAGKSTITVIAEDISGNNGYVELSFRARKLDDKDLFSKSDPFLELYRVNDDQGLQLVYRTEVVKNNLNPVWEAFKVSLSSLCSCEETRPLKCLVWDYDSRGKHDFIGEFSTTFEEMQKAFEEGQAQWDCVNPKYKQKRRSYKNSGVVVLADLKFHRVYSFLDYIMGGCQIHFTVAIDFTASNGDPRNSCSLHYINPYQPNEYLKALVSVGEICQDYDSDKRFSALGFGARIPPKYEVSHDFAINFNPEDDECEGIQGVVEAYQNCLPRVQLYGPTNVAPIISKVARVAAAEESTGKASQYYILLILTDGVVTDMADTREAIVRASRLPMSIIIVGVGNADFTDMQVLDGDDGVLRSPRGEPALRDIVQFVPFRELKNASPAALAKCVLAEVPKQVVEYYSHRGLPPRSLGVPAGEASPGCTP
UniProt P39060, whole entry, looked up: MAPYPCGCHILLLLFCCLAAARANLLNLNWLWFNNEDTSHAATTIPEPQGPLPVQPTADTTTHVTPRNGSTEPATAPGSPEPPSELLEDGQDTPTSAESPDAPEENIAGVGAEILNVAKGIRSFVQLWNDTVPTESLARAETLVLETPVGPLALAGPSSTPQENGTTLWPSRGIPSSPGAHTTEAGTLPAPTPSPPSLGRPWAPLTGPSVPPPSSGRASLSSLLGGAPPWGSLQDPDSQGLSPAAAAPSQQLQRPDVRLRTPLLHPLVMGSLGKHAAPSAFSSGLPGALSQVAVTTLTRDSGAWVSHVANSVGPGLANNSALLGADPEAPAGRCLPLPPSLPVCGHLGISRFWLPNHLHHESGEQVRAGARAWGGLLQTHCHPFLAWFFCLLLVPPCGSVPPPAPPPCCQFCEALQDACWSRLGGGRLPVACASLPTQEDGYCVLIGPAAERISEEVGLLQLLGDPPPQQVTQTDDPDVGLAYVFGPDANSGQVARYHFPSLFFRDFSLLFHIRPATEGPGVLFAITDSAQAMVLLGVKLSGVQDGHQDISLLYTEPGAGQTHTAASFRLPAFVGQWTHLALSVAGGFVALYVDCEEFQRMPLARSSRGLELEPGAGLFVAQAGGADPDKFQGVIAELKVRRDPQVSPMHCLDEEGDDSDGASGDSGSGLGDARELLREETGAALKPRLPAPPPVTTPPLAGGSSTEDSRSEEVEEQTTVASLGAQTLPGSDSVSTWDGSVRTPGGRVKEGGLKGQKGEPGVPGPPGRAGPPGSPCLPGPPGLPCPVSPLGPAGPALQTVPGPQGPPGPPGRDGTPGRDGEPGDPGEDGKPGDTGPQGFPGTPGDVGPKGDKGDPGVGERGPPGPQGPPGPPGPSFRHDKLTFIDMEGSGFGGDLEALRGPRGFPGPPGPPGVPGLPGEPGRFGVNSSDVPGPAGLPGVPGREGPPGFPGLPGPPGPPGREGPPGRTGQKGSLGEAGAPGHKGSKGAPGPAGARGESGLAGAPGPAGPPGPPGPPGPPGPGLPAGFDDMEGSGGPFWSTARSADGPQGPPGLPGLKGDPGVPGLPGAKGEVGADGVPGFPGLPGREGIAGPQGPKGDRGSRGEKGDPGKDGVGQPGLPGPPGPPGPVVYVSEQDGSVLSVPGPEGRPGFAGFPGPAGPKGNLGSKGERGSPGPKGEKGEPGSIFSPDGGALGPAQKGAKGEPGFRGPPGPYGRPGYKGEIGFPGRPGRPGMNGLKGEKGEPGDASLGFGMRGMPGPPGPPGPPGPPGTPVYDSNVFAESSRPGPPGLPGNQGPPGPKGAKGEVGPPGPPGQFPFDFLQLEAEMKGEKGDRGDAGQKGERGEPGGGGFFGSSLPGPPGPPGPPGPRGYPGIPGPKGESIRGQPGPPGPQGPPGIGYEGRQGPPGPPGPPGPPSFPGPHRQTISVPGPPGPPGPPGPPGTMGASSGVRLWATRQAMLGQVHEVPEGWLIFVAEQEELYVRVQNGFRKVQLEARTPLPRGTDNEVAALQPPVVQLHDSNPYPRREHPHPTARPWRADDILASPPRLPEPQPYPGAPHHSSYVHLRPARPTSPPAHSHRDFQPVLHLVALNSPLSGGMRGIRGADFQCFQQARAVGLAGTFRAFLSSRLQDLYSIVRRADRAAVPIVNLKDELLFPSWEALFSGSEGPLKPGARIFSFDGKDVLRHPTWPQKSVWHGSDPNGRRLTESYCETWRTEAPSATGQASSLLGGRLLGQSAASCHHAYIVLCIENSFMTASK
UniProt Q99807: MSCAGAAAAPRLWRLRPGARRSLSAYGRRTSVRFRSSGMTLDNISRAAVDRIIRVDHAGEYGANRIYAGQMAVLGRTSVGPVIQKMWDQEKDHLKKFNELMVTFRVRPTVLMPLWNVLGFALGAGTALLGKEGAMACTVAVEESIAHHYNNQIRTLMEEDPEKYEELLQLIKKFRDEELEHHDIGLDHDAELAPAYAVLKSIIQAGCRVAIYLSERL

[2] = compound: CCCS(=O)(=O)Nc1ccc(F)c(C(=O)c2c[nH]c3ncc(Cl)cc23)c1F
Method in brief: as §1

[3] = compound: CCN(CCCOc1ccc2c(Nc3cc(CC(=O)Nc4cccc(F)c4)[nH]n3)ncnc2c1)CCOP(=O)(O)O [barasertib]
Method in brief: as §1

[4] = compound: CC[C@@H]1C(=O)N(C)c2cnc(Nc3ccc(C(=O)NC4CCN(C)CC4)cc3OC)nc2N1C1CCCC1
Method in brief: as §1

[5] = compound: CC[C@@H]1C(=O)N(C)c2cnc(Nc3ccc(C(=O)N[C@H]4CC[C@H](N5CCN(CC6CC6)CC5)CC4)cc3OC)nc2N1C(C)C [volasertib]
Method in brief: as §1

[6] = compound: CCn1c(C(=O)N(C2CC2)C2CC2)cc2c3c(ncn3C)c(Nc3cc(C)n(C)n3)nc21
Method in brief: as §1

[7] = compound: CCn1cc(-c2ccnc3[nH]c(-c4cccc(CN(C)C)c4)cc23)c(-c2ccc(NC(=O)N(C)C)cc2)n1
Method in brief: as §1

[8] = compound: CN1CCC(CNc2ccc3ncc(-c4cccc(OC(F)(F)F)c4)n3n2)CC1
Method in brief: as §1

[9] = compound: CN1CCN(CCOc2cc(OC3CCOCC3)c3c(Nc4c(Cl)ccc5c4OCO5)ncnc3c2)CC1 [saracatinib]
Method in brief: as §1

[10] = compound: CN1CCN(c2nc(C3=C(c4c[nH]c5ccccc45)C(=O)NC3=O)c3ccccc3n2)CC1 [sotrastaurin]
Method in brief: as §1

[11] = compound: CN1CC[C@H](c2c(O)cc(O)c3c(=O)cc(-c4ccccc4Cl)oc23)[C@H](O)C1 [alvocidib]
Method in brief: as §1

[12] = compound: CN1CCc2c(c3ccccc3n2Cc2ccc(C(=O)NO)cc2)C1 [Tubastatin A]
Method in brief: as §1

[13] = compound: CNC(=O)C1=CC=CC=C1NC2=NC(=NC=C2Cl)NC3=C(C=C(C=C3)N4CCOCC4)OC
Method in brief: as §1

[14] = compound: CNC(=O)c1ccc(Nc2ncc(C(F)(F)F)c(NCc3nccnc3N(C)S(C)(=O)=O)n2)cc1 [defactinib]
Method in brief: as §1

[15] = compound: CNc1nc(-c2ccc3c(N)n[nH]c3c2)cc(N2C[C@@H](C(=O)NC3CCCCC3)CC[C@H]2C)n1
Method in brief: as §1

[16] = compound: COC(=O)N[C@@H](C)CNc1nccc(-c2cn(C(C)C)nc2-c2cc(Cl)cc(NS(C)(=O)=O)c2F)n1 [encorafenib]
Method in brief: as §1

[17] = compound: COC(=O)[C@H](CCSC)NC(=O)C1=C(C=C(C=C1)NC[C@H](CS)N)C2=CC=CC=C2
Method in brief: as §1

[18] = compound: COc1cc(Nc2ncc3c(n2)-c2ccc(Cl)cc2C(c2c(F)cccc2OC)=NC3)ccc1C(=O)O [alisertib]
Method in brief: as §1

[19] = compound: COc1cc2nc(-c3cc(F)ccc3O)nc(N[C@@H]3CNC[C@H]3C(C)(C)O)c2cc1OC
Method in brief: as §1

[20] = compound: COc1cc2ncnc(Nc3ccc(F)c(Cl)c3)c2cc1OCCCN1CCOCC1 [gefitinib]
Method in brief: as §1

Measured: log2 fold change

COPB1 (UniProt P53618)
inactive: [1] 0.008 | [2] 0.023 | [3] -0.018 | [4] -0.038 | [5] 0.005 | [6] -0.025 | [7] -0.11 | [8] 0.062 | [9] -0.001 | [10] -0.004 | [11] -0.038 | [12] 0.01 | [13] -0.025 | [14] 0.003 | [15] -0.003 | [16] 0.021 | [17] 0.006 | [18] -0.002 | [19] 0.017 | [20] 0.015

COMMD3 (UniProt Q9UBI1)
inactive: [1] 0.064 | [2] 0.005 | [3] 0.105 | [4] -0.017 | [5] -0.031 | [6] 0.007 | [7] -0.062 | [8] -0.129 | [9] 0.005 | [10] -0.02 | [11] 0.08 | [12] 0.013 | [13] 0.051 | [14] 0.121 | [15] 0.046 | [16] 0.064 | [17] -0.073 | [18] 0.046 | [19] -0.003 | [20] -0.098

COPE (UniProt O14579)
inactive: [1] -0.071 | [2] 0.004 | [3] 0.156 | [4] -0.063 | [5] -0.017 | [6] -0.019 | [7] -0.23 | [8] 0.113 | [9] -0.01 | [10] 0.052 | [11] -0.056 | [12] 0.002 | [13] -0.026 | [14] 0.059 | [15] -0.017 | [16] 0.04 | [17] -0.008 | [18] 0.033 | [19] -0.001 | [20] 0.01

COPS7A (UniProt Q9UBW8)
inactive: [1] -0.002 | [2] -0.002 | [3] -0.013 | [4] -0.072 | [5] 0.014 | [6] -0.004 | [7] -0.019 | [8] 0 | [9] 0.012 | [10] -0.011 | [11] -0.067 | [12] 0.033 | [13] -0.01 | [14] 0.008 | [15] 0.008 | [16] 0.058 | [17] -0.009 | [18] -0.027 | [19] -0.01 | [20] -0.032

COPG2 (UniProt Q9UBF2)
inactive: [1] 0.029 | [2] 0.012 | [3] 0.009 | [4] -0.019 | [5] 0 | [6] -0.018 | [7] 0.029 | [8] -0.013 | [9] 0.008 | [10] -0.007 | [11] -0.01 | [12] 0.025 | [13] -0.004 | [14] -0.006 | [15] 0.002 | [16] -0.016 | [17] 0.027 | [18] -0.003 | [19] 0.007 | [20] -0.017

CPNE7 (UniProt Q9UBL6)
inactive: [1] 0.035 | [2] 0 | [3] 0.017 | [4] -0.018 | [5] -0.016 | [6] 0.071 | [7] -0.201 | [8] 0.134 | [9] 0.045 | [10] -0.019 | [11] -0.019 | [12] -0.045 | [13] -0.006 | [14] -0.05 | [15] -0.043 | [16] 0.052 | [17] 0 | [18] 0.025 | [19] 0.005 | [20] 0.046

COL18A1 (UniProt P39060)
inactive: [1] 0.062 | [2] -0.024 | [3] 0.015 | [4] -0.022 | [5] 0.055 | [6] -0.051 | [7] -0.039 | [8] 0.02 | [9] 0.04 | [10] -0.027 | [11] 0.04 | [12] -0.04 | [13] -0.016 | [14] 0.28 | [15] 0.017 | [16] 0.008 | [17] 0.127 | [18] -0.045 | [19] 0.052 | [20] 0.049

Two successive entries already listed:
COPB1 (UniProt P53618)
inactive: [1] 0.008 | [2] 0.023 | [3] -0.018 | [4] -0.038 | [5] 0.005 | [6] -0.025 | [7] -0.11 | [8] 0.062 | [9] -0.001 | [10] -0.004 | [11] -0.038 | [12] 0.01 | [13] -0.025 | [14] 0.003 | [15] -0.003 | [16] 0.021 | [17] 0.006 | [18] -0.002 | [19] 0.017 | [20] 0.015

COMMD3 (UniProt Q9UBI1)
inactive: [1] 0.064 | [2] 0.005 | [3] 0.105 | [4] -0.017 | [5] -0.031 | [6] 0.007 | [7] -0.062 | [8] -0.129 | [9] 0.005 | [10] -0.02 | [11] 0.08 | [12] 0.013 | [13] 0.051 | [14] 0.121 | [15] 0.046 | [16] 0.064 | [17] -0.073 | [18] 0.046 | [19] -0.003 | [20] -0.098

(further entries)

COQ7 (UniProt Q99807)
inactive: [1] 0.03 | [2] -0.012 | [3] 0.056 | [4] 0.021 | [5] -0.016 | [6] -0.01 | [7] 0.023 | [8] 0.026 | [9] 0.011 | [10] -0.006 | [11] -0.039 | [12] -0.051 | [13] -0.026 | [14] 0.003 | [15] -0.035 | [16] -0.046 | [17] 0.059 | [18] 0.018 | [19] 0.055 | [20] -0.064
